PubChem BioAssay AID1671195 – Yale University – 2021
Here is a random part of about 22,000 reagents tested. Over the whole deposit, about 1,510 (6.9%) got an active call. 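Active includes knockdowns raising or lowering LDL uptake; positive z-scores mean more uptake, negative mean less.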 A number with no mark means an inactive call. The numbers tell different reagents against one gene apart.

Aim: 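Genes whose knockdown alters LDL uptake in liver cancer cells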 (primary screen)
System: human Huh7 hepatoma cells
Reagent: siRNA pool against human genes, 18 nM
Timing: about 2 to 2.5 days of knockdown, then 8 h LDL uptake
Challenge: DiI-labelled LDL at 30 µg/ml for 8 h, in lipoprotein-deficient serum medium
Measurement: 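Per-cell DiI-LDL intensity by automated imaging; well means scaled to the plate median and given as a robust z-score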
Scale: robust z-score: higher = more LDL uptake after knockdown
Call rule: 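Active when two or more replicates show a robust z-score above 2 or below -2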

| Gene | reagent | robust z-score, replicate 1 | robust z-score, replicate 2 | robust z-score, replicate 3 |
| --- | --- | --- | --- | --- |
| SCARF2 (scavenger receptor class F member 2) | 1 | -0.925 | -0.853 | -0.683 |
| CCDC81 (coiled-coil domain containing 81) | 1 | 0.0113 | 0.317 | 0.0268 |
| SLC45A3 | 1 | -0.308 | -0.0118 | -0.0253 |
| REEP5 (receptor accessory protein 5) | 1 | -1.89 | -2.86 | -0.65 |
| BBS1 (Bardet-Biedl syndrome 1) | 1 | -0.894 | -0.991 | -0.454 |
| FOLR3 (folate receptor gamma) | 1 | -0.452 | -0.545 | -0.372 |
| PUM2 (pumilio RNA binding family member 2) | 1 | 0.24 | 0.148 | 0.754 |
| YTHDF3 (YTH N6-methyladenosine RNA binding protein F3) | 1 | 0.183 | 0.622 | 0.432 |
| LOC441968 (retired record) | 1 | -0.693 | -0.96 | -0.823 |
| LOC392347 (retired record) | 1 | -1.79 | -1.63 | -1.17 |
| KRT82 (keratin 82) | 1 | -0.567 | -0.196 | -0.318 |
| LOC387915 (retired record) | 1 | 2.36 (active) | 2.09 | 2.81 |
| DIP2A (DIP2 acetate--CoA ligase A) | 1 | -0.648 | 0.653 | -2.12 |
| LOC441540 (retired record) | 1 | 1.72 | 1.16 | 0.72 |
| TMEM160 (transmembrane protein 160) | 1 | -0.186 | -0.131 | 1.61 |
| TCF20 (transcription factor 20) | 1 | -0.368 | -0.0975 | -0.282 |
| TMEM219 (transmembrane protein 219) | 1 | 0.796 | 0.665 | 0.318 |
| RDH8 (retinol dehydrogenase 8) | 1 | 0.957 | 0.73 | 0.548 |
| SPINT4 (serine peptidase inhibitor, Kunitz type 4) | 1 | -0.797 | -0.374 | -0.343 |
| IARS2 (isoleucyl-tRNA synthetase 2, mitochondrial) | 1 | -0.283 | 0.375 | -0.418 |
| CCDC159 (coiled-coil domain containing 159) | 1 | -0.291 | -0.201 | -0.221 |
| OVOL1 (ovo like transcriptional repressor 1) | 1 | 1.13 | 1.16 | 1.37 |
| GPR132 (G protein-coupled receptor 132) | 1 | -0.83 | -1.97 | -1.06 |
| GALR3 (galanin receptor 3) | 1 | -1.09 | -0.298 | -0.504 |
| LOC442008 (retired record) | 1 | -0.0484 | 0.724 | -0.0621 |
| GOLM1 (golgi membrane protein 1) | 1 | 0.45 | 0.361 | 0.345 |
| MOK (MOK protein kinase) | 1 | 0.239 | 0.693 | 0.164 |
| PARP6 (poly(ADP-ribose) polymerase family member 6) | 1 | -2.67 | -1.53 | -1.49 |
| NUDT19 (nudix hydrolase 19) | 1 | -0.737 | -0.631 | -0.833 |
| FKBP3 (FKBP prolyl isomerase 3) | 1 | 0.272 | 0.38 | 0.413 |
| USP53 (ubiquitin specific peptidase 53) | 1 | 0.693 | -0.128 | -0.0782 |
| USP53 (ubiquitin specific peptidase 53) | 2 | -1.08 | -1.07 | -1.27 |
| CFL1P2 (cofilin 1 pseudogene 2) | 1 | -0.529 | -0.025 | -0.878 |
| PCED1A (PC-esterase domain containing 1A) | 1 | 0.391 | 0.64 | 0.681 |
| PPID (peptidylprolyl isomerase D) | 1 | 1.12 | 1.88 | 1.44 |
| ARMC8 (armadillo repeat containing 8) | 1 | -0.0285 | 0.563 | 0.0628 |
| LOC343705 (retired record) | 1 | 0.351 | 0.556 | 0.445 |
| CRYL1 (crystallin lambda 1) | 1 | 0.46 | 0.218 | -0.258 |
| OPHN1 (oligophrenin 1) | 1 | -0.32 | -0.0253 | -0.408 |
| MICAL3 | 1 | 1.11 | 0.0516 | 0.542 |
| HMGCR (3-hydroxy-3-methylglutaryl-CoA reductase) | 1 | 3 (active) | 3.53 | 3.06 |
| CTSH (cathepsin H) | 1 | 0.242 | -0.411 | 0.166 |
| ZSCAN25 (zinc finger and SCAN domain containing 25) | 1 | 1.73 (active) | 2.04 | 1.99 |
| CSF2RB (colony stimulating factor 2 receptor subunit beta) | 1 | 2.86 | 1.44 | 1.88 |
| PLAAT4 (phospholipase A and acyltransferase 4) | 1 | -1.24 | -1.56 | -1.4 |
| ATP1B1 (ATPase Na+/K+ transporting subunit beta 1) | 1 | 1.35 | 0.55 | 0.874 |

Active calls, among the entries above:
| Gene | reagent | robust z-score, replicate 1 | robust z-score, replicate 2 | robust z-score, replicate 3 |
| --- | --- | --- | --- | --- |
| LOC387915 (retired record) | 1 | 2.36 (active) | 2.09 | 2.81 |
| HMGCR (3-hydroxy-3-methylglutaryl-CoA reductase) | 1 | 3 (active) | 3.53 | 3.06 |
| ZSCAN25 (zinc finger and SCAN domain containing 25) | 1 | 1.73 (active) | 2.04 | 1.99 |
